Numbering of substitutions follows the chain as printed. Names may count otherwise. Results are given in words; binding and its absence hold for the method and conditions named. For some assays here: In cells and extracts the contact can be indirect. Some entries that bind do so weakly or less than the wild type. One block for each binder: values may come before it.
Assays:
[1] = biological target: T1, Human native C-reactive protein (CRP) (human), P02741; assay: SEC; Superdex G75; CRP 100 ug/ml in 8 M urea, 5 mM EDTA sampled at the indicated times; eluted with 8 M urea containing 2 mM Ca to stabilise the native pentameric state; both purified; settings: remark: other sources report otherwise
T1 chain: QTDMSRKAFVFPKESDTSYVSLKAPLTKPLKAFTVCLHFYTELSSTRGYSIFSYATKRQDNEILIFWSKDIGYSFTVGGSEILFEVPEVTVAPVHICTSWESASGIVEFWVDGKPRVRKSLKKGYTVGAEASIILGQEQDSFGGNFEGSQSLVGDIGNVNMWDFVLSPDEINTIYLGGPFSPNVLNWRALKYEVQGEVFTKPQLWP

[2] = biological target: CRP Y40C/V117C mutant (human) (UniProt P02741); assay: cross-linking; engineered inter-subunit disulfide bonds; conditioned media of COS-7 cells, immunoblotting with clone8 mAb, oligomer bands sensitive to reduction

binding [1]: binds
B1: Human native C-reactive protein (CRP), P02741 19-224 (protein)
chain: T1 chain

binding [2]: binds
B2: CRP Y40C/V117C mutant (protein, UniProt P02741 19-224)
chain: T1 chain with Y40C, V117C

Reference: article PMC5784126
